From PMC10711645 come the findings set out here.

Protein sequences, listed by entry. Tags and fused reporters are not part of them.
UniProt O00425: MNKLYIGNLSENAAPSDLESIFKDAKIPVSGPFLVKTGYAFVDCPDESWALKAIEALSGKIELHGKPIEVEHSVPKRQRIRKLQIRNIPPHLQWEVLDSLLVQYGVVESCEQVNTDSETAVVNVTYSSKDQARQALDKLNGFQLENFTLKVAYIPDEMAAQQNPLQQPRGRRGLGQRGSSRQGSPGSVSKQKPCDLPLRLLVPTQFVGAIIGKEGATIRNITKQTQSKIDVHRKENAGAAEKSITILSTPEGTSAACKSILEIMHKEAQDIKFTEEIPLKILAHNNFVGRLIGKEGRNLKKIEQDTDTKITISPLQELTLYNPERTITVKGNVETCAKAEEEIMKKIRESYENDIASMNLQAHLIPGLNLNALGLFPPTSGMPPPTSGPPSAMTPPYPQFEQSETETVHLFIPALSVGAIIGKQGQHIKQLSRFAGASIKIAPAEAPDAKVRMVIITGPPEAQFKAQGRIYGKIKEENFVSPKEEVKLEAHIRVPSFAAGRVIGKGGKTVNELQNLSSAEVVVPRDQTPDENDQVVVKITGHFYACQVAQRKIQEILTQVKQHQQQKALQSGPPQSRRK
UniProt Q15717: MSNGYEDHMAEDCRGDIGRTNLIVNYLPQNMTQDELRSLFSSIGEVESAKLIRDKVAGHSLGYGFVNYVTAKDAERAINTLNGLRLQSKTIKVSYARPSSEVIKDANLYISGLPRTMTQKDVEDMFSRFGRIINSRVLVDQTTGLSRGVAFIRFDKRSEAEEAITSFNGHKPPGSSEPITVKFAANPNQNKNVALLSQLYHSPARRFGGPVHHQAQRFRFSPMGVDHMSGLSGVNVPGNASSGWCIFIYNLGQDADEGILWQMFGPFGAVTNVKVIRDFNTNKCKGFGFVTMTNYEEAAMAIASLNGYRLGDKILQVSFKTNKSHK
UniProt P11940: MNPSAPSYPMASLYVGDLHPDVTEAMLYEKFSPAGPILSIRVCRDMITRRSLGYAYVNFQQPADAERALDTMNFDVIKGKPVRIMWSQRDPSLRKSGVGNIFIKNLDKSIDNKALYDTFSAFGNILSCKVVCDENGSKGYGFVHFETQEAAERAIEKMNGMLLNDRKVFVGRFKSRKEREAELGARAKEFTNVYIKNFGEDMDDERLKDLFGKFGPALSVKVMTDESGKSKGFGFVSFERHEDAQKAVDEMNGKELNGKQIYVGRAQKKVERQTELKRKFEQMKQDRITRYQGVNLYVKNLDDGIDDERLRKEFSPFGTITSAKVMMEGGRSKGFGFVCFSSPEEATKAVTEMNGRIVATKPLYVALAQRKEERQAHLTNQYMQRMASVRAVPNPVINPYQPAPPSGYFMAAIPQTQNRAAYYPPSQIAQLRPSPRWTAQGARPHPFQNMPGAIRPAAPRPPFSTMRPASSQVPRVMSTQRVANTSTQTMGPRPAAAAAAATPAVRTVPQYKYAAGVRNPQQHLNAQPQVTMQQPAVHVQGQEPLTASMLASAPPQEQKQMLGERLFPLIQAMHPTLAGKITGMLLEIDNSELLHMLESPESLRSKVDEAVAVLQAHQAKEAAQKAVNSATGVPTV

In this assay the target is IGF2BP3 (insulin-like growth factor 2 mRNA-binding protein 3) (human (endogenous in 786-O and ACHN)) (UniProt O00425). As to the kind of experiment: co-IP; lysates of 786-O and ACHN cells (circRARS knocked down or overexpressed) in IP lysis buffer with protease inhibitor; anti-IGF2BP3 antibody (1:100) at 4°C overnight, IgG as negative control; protein A/G magnetic beads 2 h at 4°C; SDS-PAGE and blot.

These are yes or no findings as the source states them, for the method shown. Binding seen in cells or lysates may run through a third protein. Some entries that bind do so weakly or less than the wild type.

On to HuR (from UniProt Q15717 1-326), for which the binding result is “binds”.
The same measure for pAbPC1 (from UniProt P11940 1-636): “binds”.

B1: Matrin3 (protein, UniProt P43243 1-847)
chain: MSKSFQQSSLSRDSQGHGRDLSAAGIGLLAAATQSLSMPASLGRMNQGTARLASLMNLGMSSSLNQQGAHSALSSASTSSHNLQSIFNIGSRGPLPLSSQHRGDADQASNILASFGLSARDLDELSRYPEDKITPENLPQILLQLKRRRTEEGPTLSYGRDGRSATREPPYRVPRDDWEEKRHFRRDSFDDRGPSLNPVLDYDHGSRSQESGYYDRMDYEDDRLRDGERCRDDSFFGETSHNYHKFDSEYERMGRGPGPLQERSLFEKKRGAPPSSNIEDFHGLLPKGYPHLCSICDLPVHSNKEWSQHINGASHSRRCQLLLEIYPEWNPDNDTGHTMGDPFMLQQSTNPAPGILGPPPPSFHLGGPAVGPRGNLGAGNGNLQGPRHMQKGRVETSRVVHIMDFQRGKNLRYQLLQLVEPFGVISNHLILNKINEAFIEMATTEDAQAAVDYYTTTPALVFGKPVRVHLSQKYKRIKKPEGKPDQKFDQKQELGRVIHLSNLPHSGYSDSAVLKLAEPYGKIKNYILMRMKSQAFIEMETREDAMAMVDHCLKKALWFQGRCVKVDLSEKYKKLVLRIPNRGIDLLKKDKSRKRSYSPDGKESPSDKKSKTDGSQKTESSTEGKEQEEKSGEDGEKDTKDDQTEQEPNMLLESEDELLVDEEEAAALLESGSSVGDETDLANLGDVASDGKKEPSDKAVKKDGSASAAAKKKLKKVDKIEELDQENEAALENGIKNEENTEPGAESSENADDPNKDTSENADGQSDENKDDYTIPDEYRIGPYQPNVPVGIDYVIPKTGFYCKLCSLFYTNEEVAKNTHCSSLPHYQKLKKFLNKLAEERRQKKET
For B1, the binding entry is listed as “binds”.
